Reference: PubChem BioAssay AID624297 (National Center for Advancing Translational Sciences (NCATS), 2012)
Among all 340,000 compounds or so, about 6,200 (1.8%) were called active. Inconclusive results, whose numbers are uncertain, are shown with a selection of clear calls. Calls come from the whole dose curve; as a rule, active = well fitted activation curve with a large enough effect; inconclusive = small, poorly fitted or top-dose-only effect; inactive = no such curve, though single readings can be large or run the other way. Potencies beside an inconclusive call are fits to weak or partial responses and may not hold up.

assay: A quantitative high throughput screen for small molecules that induce DNA re-replication in SW480 colon adenocarcinoma cells.; note: nearly all actives have a fitted effect of over 55% in size; for re-replication activation: % of control where 0% means no effect; conditions: Hoechst DNA content imaging, 48 h; re-replication activation: at 46.1 µM (top of the series)
Procedure, shortened: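 Compounds, transferred as 23 nL by pin tool, were incubated with cells for 48 hr; DNA content per nucleus was then quantified by Hoechst staining and fluorescence plate imaging.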
Potency is the fitted concentration of half-maximal effect.

**Q.** For `COc1ccc(-c2cc(NC(=O)c3cncn3-c3ccccc3)ccc2OC)cc1`, which Potency is on record?
**A.** Its Potency is inconclusive: 20.6 µM [activator, single point].

**Q.** Which Potency does the source give for `CC(=O)Nc1cccc(/C(C)=N/NC(=O)c2ccc(NS(=O)(=O)c3cccs3)cc2)c1` here?
**A.** The Potency was inconclusive: 0.0041 µM [activator, full curve, poor fit].

**Q.** Which Potency does the source give for `O=C(NCc1cccs1)c1cc2c(s1)CS(=O)(=O)C2` here?
**A.** Its Potency is inconclusive: 5.8 µM [activator, single point].

**Q.** With `Cc1cc(NC(=O)NC(=O)c2ccccc2NC(=O)C(C)N)ccc1Oc1ncc(Br)cn1` (stereo not given) as the compound, how does the Potency read?
**A.** The Potency was active: 2.91 µM.

**Q.** With `CC(C)CN(CC(C)C)C1=N/C(=C\c2ccco2)C(=O)N1c1ccccc1` as the compound, how does the Potency read?
**A.** Its Potency is inconclusive: 6.51 µM [activator, single point].

**Q.** With `O=C(CCCN1C(=O)/C(=C/c2ccccc2)SC1=S)Nc1ccccc1O` as the compound, how does the Potency read?
**A.** The Potency was inconclusive: 29.1 µM [activator, single point].

**Q.** With `CN1CCc2c(sc(NC(=O)CS(=O)(=O)c3ccc(F)cc3)c2C(N)=O)C1` as the compound, how does the Potency read?
**A.** Its Potency is “inactive”.

**Q.** For `CCOC(=O)c1[nH]c(C)c(C(=O)NCc2ccc(OC)cc2)c1C`, which Potency is on record?
**A.** The Potency was “inactive”.

**Q.** Which Potency does the source give for `O=C(Oc1c(CN2CCOCC2)cc(Cl)c2cccnc12)c1ccccc1Br` here?
**A.** Its Potency is active: 3.26 µM.

**Q.** Which Potency does the source give for `CC(Oc1ccc2c(c1)c1ccnc3c4ccccc4c(=O)n2c13)C(=O)NCCN1CCOCC1` (stereo not given) here?
**A.** The Potency was inconclusive: 2.59 µM [activator, single point].

**Q.** For `COCCCn1[nH]c2c3c(ccc2c1=O)C(=O)c1ccccc1C3=O`, which Potency is on record?
**A.** The Potency was inconclusive: 18.4 µM [activator, single point].

**Q.** Which Potency does the source give for `CN(C)c1cccc(C(=O)N(C)C2CCCN(Cc3ccccc3F)C2)c1` (stereo not given) here?
**A.** The Potency was “inactive”.

**Q.** For `O=C(Nc1ccc(-c2cnco2)cc1)c1ccccc1`, which Potency is on record?
**A.** The Potency was “inactive”.

**Q.** For `CC(NC(=O)CCl)c1ccccc1Br` (stereo not given), which Potency is on record?
**A.** The Potency was inconclusive: 29.1 µM [activator, single point].

**Q.** For `CC(C)C(=O)NC(=S)Nc1ccccc1N1CCN(C(=O)c2ccc(Cl)cc2)CC1`, which Potency is on record?
**A.** The Potency was inconclusive: 18.4 µM [activator, partial curve, poor fit].

**Q.** For `CC(C)=CC1C(C(=O)Nc2ccc(S(=O)(=O)N3CCOCC3)cc2)C1(C)C` (stereo not given), which Potency is on record?
**A.** The Potency was “inactive”.

**Q.** Which Potency does the source give for `Cc1cc(C)n(-c2nc3c(c(=O)[nH]c(=O)n3C)n2CC(O)COc2ccc(Cl)cc2Cl)n1` (stereo not given) here?
**A.** The Potency was inconclusive: 0.82 µM [activator, full curve, poor fit].

**Q.** For `Cc1nnc(SCC(=O)N2CC(=O)Nc3ccccc32)n1-c1ccccc1`, which Potency is on record?
**A.** Its Potency is “inactive”.

**Q.** With `O=C(NC(=S)Nc1ccccn1)c1cc(-c2ccccc2)nc2ccccc12` as the compound, how does the Potency read?
**A.** Its Potency is inconclusive: 7.31 µM [activator, partial curve, poor fit].

**Q.** For `COC(=O)c1ccc(NC(=O)COc2ccc3c(c2)OCO3)cc1`, which Potency is on record?
**A.** The Potency was active: 0.411 µM.

**Q.** For `COc1ccc(CNCc2cccn2C)cc1`, which Potency is on record?
**A.** The Potency was inconclusive: 18.4 µM [activator, single point].

**Q.** With `COC(=O)[C@@]12CCCCN1[C@H](c1ccc(-c3cc(C(C)=O)cs3)c(OC)c1)[C@H]1C(=O)N(C)C(=O)[C@H]12` as the compound, how does the Potency read?
**A.** The Potency was inconclusive: 18.4 µM [activator, single point].

**Q.** Which Potency does the source give for `COc1ccc(/C=N/NC(=O)c2ccccc2Cl)cc1CSc1nc2ccccc2s1` here?
**A.** Its Potency is active: 5.8 µM.

**Q.** For `CCn1c(CNS(=O)(=O)c2ccc(Br)cc2)n[nH]c1=S`, which Potency is on record?
**A.** The Potency was inconclusive: 0.461 µM [activator, partial curve, poor fit].

**Q.** With `Cc1cc(C)cc(CSc2ccc(S(=O)(=O)N3CCCC3)cn2)c1` as the compound, how does the Potency read?
**A.** Its Potency is “inactive”.

**Q.** With `COc1ccc(N2CCN(C(=O)Cn3c(=O)c4cccn4c4cccnc43)CC2)cc1` as the compound, how does the Potency read?
**A.** Its Potency is inconclusive: 2.06 µM [activator, partial curve, poor fit].

**Q.** With `CC(=O)C1(O)C(C)CC2C3CCC4CC(O)CCC4(C)C3=CCC21C` (stereo not given) as the compound, how does the Potency read?
**A.** The Potency was inconclusive: 18.4 µM [activator, partial curve, poor fit].

**Q.** Which Potency does the source give for `O=C(c1cc2nc(-c3cccs3)cc(C(F)(F)F)n2n1)N1CCCc2ccccc21` here?
**A.** Its Potency is inconclusive: 23.1 µM [activator, single point].

**Q.** With `CCN1CCN(C(=S)Nc2ccc3nc(N4CCN(CC)CC4)cc(C)c3c2)CC1` as the compound, how does the Potency read?
**A.** Its Potency is inconclusive: 29.1 µM [activator, single point].

**Q.** For `Cc1ccc2nsnc2c1NC(=O)c1ccc(-c2cc(Cl)ccc2Cl)o1`, which Potency is on record?
**A.** Its Potency is active: 13 µM.

**Q.** For `Cc1csc2nc(O)c(C(=O)NC3CCCCC3)c(=O)n12`, which Potency is on record?
**A.** The Potency was “inactive”.

**Q.** Which Potency does the source give for `CSc1sc(C)cc1C1C(C#N)=C(N)N(c2cccnc2)C2=C1C(=O)CCC2` (stereo not given) here?
**A.** Its Potency is inconclusive: 29.1 µM [activator, partial curve, poor fit].

**Q.** Which Potency does the source give for `Brc1ccccc1-n1nnc(-c2nccs2)n1` here?
**A.** Its Potency is inconclusive: 2.31 µM [activator, full curve, poor fit].

**Q.** For `CSc1nc(SCC(=O)O)c2c3c(sc2n1)COC(C)(C)C3`, which Potency is on record?
**A.** The Potency was “inactive”.

**Q.** Which Potency does the source give for `O=C1C2C3C=CC(C3)C2C(=O)N1c1n[nH]c(CCc2ccccc2)n1` (stereo not given) here?
**A.** The Potency was “inactive”.

**Q.** Which Potency does the source give for `Cc1nc([N+](=O)[O-])cn1Cc1cccc2ccccc12` here?
**A.** The Potency was inconclusive: 29.1 µM [activator, single point].

**Q.** Which Potency does the source give for `CCOC(=O)CSC1=NC(=O)CS1` here?
**A.** The Potency was inconclusive: 20.6 µM [activator, single point].

**Q.** With `CCC(C)(C)C(=O)O` as the compound, how does the Potency read?
**A.** Its Potency is inconclusive: 0.092 µM [activator, single point].

**Q.** With `Cc1ccc(NC(=O)CNc2ccc(OC(C)C)cc2)c(C)c1` as the compound, how does the Potency read?
**A.** The Potency was inconclusive: 4.11 µM [activator, single point].

**Q.** With `O=c1c2ccccc2cnn1Cc1ccc(Cl)c(Cl)c1` as the compound, how does the Potency read?
**A.** Its Potency is “inactive”.

**Q.** Which Potency does the source give for `COC(=O)COn1c(SCC(=O)OC)nc2ccccc2c1=O` here?
**A.** The Potency was inconclusive: 29.1 µM [activator, single point].

**Q.** Which re-replication activation does the source give for `Cc1ccc(C(=O)N/N=C\c2cc3c(cc2Br)OCO3)s1` here?
**A.** The re-replication activation was inconclusive: 90.1% [activator].

**Q.** For `CCN1CCN(c2ccc(NC(=O)CCc3c(C)nc4c(-c5ccc(F)cc5)c(C)nn4c3C)cc2)CC1`, which Potency is on record?
**A.** Its Potency is inconclusive: 29.1 µM [activator, partial curve, poor fit].

**Q.** With `Cn1c(N)c(C(=O)COC(=O)COc2ccc(Cl)cc2Cl)c(=O)n(C)c1=O` as the compound, how does the Potency read?
**A.** Its Potency is “inactive”.

**Q.** For `C/C(O)=C\c1nc2ccccc2oc1=O`, which Potency is on record?
**A.** Its Potency is inconclusive: 29.1 µM [activator, partial curve, poor fit].

**Q.** For `O=C(Nc1cccnc1Cl)c1cc([N+](=O)[O-])ccc1Cl`, which Potency is on record?
**A.** The Potency was inconclusive: 29.1 µM [activator, single point].

**Q.** Which Potency does the source give for `CCc1nc(SCC(=O)OC)c2c3c(sc2n1)COC(C)(C)C3` here?
**A.** Its Potency is inconclusive: 2.91 µM [activator, single point].

**Q.** For `CN1CCN(/N=C/c2c3ccccc3c(Cl)c3ccccc23)CC1`, which Potency is on record?
**A.** The Potency was inconclusive: 23.1 µM [activator, single point].

**Q.** For `CC/C(Cc1ccccc1)=N/NC(=O)c1cccc(Br)c1`, which Potency is on record?
**A.** Its Potency is inconclusive: 0.0058 µM [activator, full curve, poor fit].

**Q.** For `O=C(NCC1CCCO1)c1cccc(NC(=O)c2ccccc2)c1` (stereo not given), which Potency is on record?
**A.** Its Potency is “inactive”.

**Q.** With `COc1ccc(Cc2c(Cl)ncnc2Cl)cc1` as the compound, how does the Potency read?
**A.** The Potency was inconclusive: 29.1 µM [activator, single point].

**Q.** Which Potency does the source give for `N#Cc1c(Oc2ccc3ccccc3c2)sc(C(=O)c2ccccc2)c1N` here?
**A.** Its Potency is “inactive”.

**Q.** Which Potency does the source give for `CN(C=O)c1ccc(CSc2ccccc2)cc1` here?
**A.** The Potency was “inactive”.

**Q.** For `Cc1cc(N)ncc1[N+](=O)[O-]`, which Potency is on record?
**A.** The Potency was “inactive”.

**Q.** Which Potency does the source give for `CCCOC(C(=O)OC1CCN(C)CC1)(c1ccccc1)c1ccccc1` here?
**A.** The Potency was inconclusive: 29.9 µM [activator, partial curve].

**Q.** Which Potency does the source give for `CC1(C)C2CCC1(C)C(OCCNCCOC(=O)Nc1ccccc1)C2` (stereo not given) here?
**A.** Its Potency is “inactive”.

**Q.** With `CCN1CCN(c2nc(-c3ccccn3)nc3ccccc23)CC1` as the compound, how does the Potency read?
**A.** The Potency was inconclusive: 29.1 µM [activator, single point].

**Q.** With `CCSc1ncc(Cl)c(C(=O)Nc2ccc(S(=O)(=O)Nc3ncccn3)cc2)n1` as the compound, how does the Potency read?
**A.** Its Potency is inconclusive: 29.1 µM [activator, single point].

**Q.** Which Potency does the source give for `Cc1ccc(Cl)cc1N1CCN(C(=O)c2ccc(NS(=O)(=O)c3c(C)noc3C)cc2)CC1` here?
**A.** The Potency was inconclusive: 16.4 µM [activator, partial curve, poor fit].

**Q.** Which Potency does the source give for `Cc1ccc(C(=O)N/N=C/c2ccc(N3CCOCC3)cc2)c(C)c1` here?
**A.** The Potency was “inactive”.

**Q.** Which Potency does the source give for `COc1cccc(N2CCN(C(=O)C3CCCN(S(=O)(=O)c4ccc5c(c4)oc(=O)n5C)C3)CC2)c1` (stereo not given) here?
**A.** Its Potency is “inactive”.

**Q.** Which Potency does the source give for `COc1cccc(-c2cc(C(=O)NCc3cccs3)no2)c1` here?
**A.** The Potency was inconclusive: 0.184 µM [activator, full curve, poor fit].

**Q.** Which Potency does the source give for `CC(C)(C)c1cccc(Oc2nn[nH]n2)c1` here?
**A.** The Potency was inconclusive: 29.1 µM [activator, single point].

**Q.** Which Potency does the source give for `NC(=O)c1cccnc1OCC(F)(F)F` here?
**A.** The Potency was inconclusive: 11.6 µM [activator, single point].

**Q.** Which Potency does the source give for `COc1ccc(NC(=O)CC2C(=O)N(C)C(=S)N2CCc2ccccc2)cc1` (stereo not given) here?
**A.** The Potency was inconclusive: 23.1 µM [activator, partial curve, poor fit].

**Q.** With `COc1ccc(S(=O)(=O)Nc2ccccc2C(=O)NCc2cccnc2)cc1` as the compound, how does the Potency read?
**A.** The Potency was inconclusive: 29.1 µM [activator, single point].

**Q.** For `COc1ccc(-c2cc(C(=O)Nc3c(C)n(C)n(-c4ccccc4)c3=O)c3ccccc3n2)cc1`, which Potency is on record?
**A.** Its Potency is inconclusive: 6.31 µM [activator, single point].

**Q.** For `COc1cc(C2=NOC(C(=O)Nc3c(C)n(C)n(-c4ccccc4)c3=O)C2)cc(OC)c1OC` (stereo not given), which Potency is on record?
**A.** Its Potency is “inactive”.

**Q.** With `Cc1ccc(C(C)C)c(OCCCN2CCc3ccccc3C2)c1` as the compound, how does the Potency read?
**A.** The Potency was inconclusive: 13 µM [activator, partial curve].

**Q.** For `CCN(CC)CCN(C(=O)/C=C/c1cccs1)c1nc2ccc(Cl)cc2s1`, which Potency is on record?
**A.** The Potency was inconclusive: 6.51 µM [activator, single point].
